Experimental data reported in PubChem BioAssay AID493014 (National Center for Advancing Translational Sciences (NCATS), 2011).
This is one part of the list. Shown are side measurements of this screen, not its main read-out; they come without a call. The list favours compounds with an active or inconclusive main result. The note in brackets gives the kind of curve behind each potency; many fits are weak.

Assay: qHTS Assay to Find Inhibitors of Chronic Active B-Cell Receptor Signaling
Conditions: ABC-DLBCL IkBa-CBG/CBR reporter, luminescence ratio (green luciferase fused to IkBa over red control in TMD8 lymphoma cells), 4 h
In short: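 Doxycycline induced both beetle luciferases in TMD8 lymphoma cells; IKK-driven degradation limits the IkappaBalpha-fused green signal, while red luminescence normalises for cell number and nonspecific effects. Compounds tested up to 46 uM, 4 hrs.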

[1] = measured here: CBR red luminescence, cell number
[2] = measured here: IkBa-CBG green luminescence

**Q.** Which AC50 [1] does the source give for `CCCOc1ccc(-c2nnc(-c3ccncc3)o2)cc1` here?
**A.** 17.8 µM [rising, partial curve, poor fit]

**Q.** For `CC(=O)c1ccc(-n2nnnc2SCC(=O)Nc2cccc(NC(=O)c3ccco3)c2)cc1`, which AC50 [1] is on record?
**A.** 1.12 µM [falling, full curve, poor fit]

**Q.** Which AC50 [1] does the source give for `CCCCCCCCOC(=O)c1ccc(N)cc1` here?
**A.** 5.8 µM [rising, full curve, poor fit]

**Q.** With `Cc1ccc(C(=O)N/C(=C\c2ccc3c(c2)OCO3)C(=O)Nc2ccc(C(=O)O)cc2)cc1` as the compound, how does the AC50 [2] read?
**A.** 20 µM [rising, partial curve, poor fit]

**Q.** Which AC50 [1] does the source give for `S=c1[nH]nc(Cc2ccccc2)n1-c1ccc(Cl)cc1` here?
**A.** 0.398 µM [rising, full curve, poor fit]

**Q.** Which AC50 [1] does the source give for `CCC(C(=O)NCCCN(CC)Cc1ccccc1)n1nc(C)c2sc3ccccc3c2c1=O` (configuration not stated) here?
**A.** 10 µM [falling, partial curve]

**Q.** For `O=C(c1cc(-c2ccc3c(c2)OCO3)on1)N1CCCCC1`, which AC50 [1] is on record?
**A.** 2 µM [falling, full curve, poor fit]

**Q.** For `Cc1ccc(S(=O)(=O)Nc2ccc(S(=O)(=O)NC(C)(C)C)cc2)cc1`, which AC50 [1] is on record?
**A.** 14.6 µM [falling, partial curve, poor fit]

**Q.** With `COc1cc(OC)c(C2N(c3ccc(Cl)cc3)C(=O)C3CCCN32)cc1OC` (configuration not stated) as the compound, how does the AC50 [1] read?
**A.** 31.6 µM [rising, partial curve, poor fit]

**Q.** With `Cc1ccc(N=Nc2c(N)nn(-c3ccccc3)c2N)cc1` as the compound, how does the AC50 [1] read?
**A.** 11.6 µM [falling, partial curve]

**Q.** With `Cc1ccc(OCC(=O)NCc2cccs2)cc1` as the compound, how does the AC50 [1] read?
**A.** 13 µM [falling, single point]

**Q.** With `Cc1ccc(/C([O-])=C(/C(=S)NCc2ccco2)[n+]2ccccc2)cc1[N+](=O)[O-]` as the compound, how does the AC50 [1] read?
**A.** 3.98 µM [rising, partial curve, poor fit]

**Q.** Which AC50 [1] does the source give for `Cn1ncc2c(Nc3cccc(F)c3)ncnc21` here?
**A.** 3.98 µM [falling, partial curve, poor fit]

**Q.** Which AC50 [1] does the source give for `O=C(NCCO)c1cc2c([nH]c3ccccc32)c(-c2ccc(F)cc2)n1` here?
**A.** 14.1 µM [falling, single point]

**Q.** For `Cc1cc(Cl)ccc1OCCn1cncn1`, which AC50 [1] is on record?
**A.** 35.5 µM [rising, single point]

**Q.** Which AC50 [1] does the source give for `COc1ccc(NC(=S)N(CCCN2CCOCC2)Cc2cn(C)c3ccccc23)cc1` here?
**A.** 11.6 µM [rising, partial curve, poor fit]

**Q.** Which AC50 [1] does the source give for `O=C(N/N=C/c1ccc2ccccc2c1)c1ccc(COc2ccc3c(c2)CCC3)o1` here?
**A.** 0.447 µM [falling, full curve, poor fit]

**Q.** For `COc1ccc(C2CNC(=O)C2)cc1OC1CCCC1` (configuration not stated), which AC50 [1] is on record?
**A.** 4.47 µM [rising, full curve, poor fit]

**Q.** Which AC50 [1] does the source give for `O=C1/C(=C/c2ccccn2)SC(=S)N1N1CCOCC1` here?
**A.** 2.24 µM [rising, partial curve, poor fit]

**Q.** With `Cc1c(C(=O)N/N=C/c2ccc(Cl)cc2)[nH]c2ccc(Cl)cc12` as the compound, how does the AC50 [1] read?
**A.** 1.3 µM [rising, full curve, poor fit]

**Q.** What about the AC50 [2] of the same compound?
**A.** 2.06 µM [falling, full curve]

**Q.** With `O=C(Nc1cnc2ccccc2c1)c1ccncc1` as the compound, how does the AC50 [1] read?
**A.** 16.4 µM [falling, partial curve]

**Q.** Which AC50 [1] does the source give for `O=c1c(O)c(-c2ccc(O)cc2O)oc2cc(O)cc(O)c12` here?
**A.** 3.66 µM [rising, partial curve]

**Q.** What about the AC50 [2] of the same compound?
**A.** 7.31 µM [falling, partial curve]

**Q.** Which AC50 [1] does the source give for `O=C1CC(N2CCN(C/C=C/c3ccccc3)CC2)C(=O)N1Cc1cccs1` (configuration not stated) here?
**A.** 3.66 µM [rising, partial curve, poor fit]

**Q.** For `COc1ccc2c(C#CCCO)c(-c3ccc(S(C)(=O)=O)cc3)sc2c1`, which AC50 [1] is on record?
**A.** 16.4 µM [rising, single point]

**Q.** And the AC50 [2]?
**A.** 20.6 µM [falling, partial curve]

**Q.** With `CC(C)CN1C(=O)c2ccc(C(=O)Nc3ccccn3)cc2C1=O` as the compound, how does the AC50 [1] read?
**A.** 6.31 µM [falling, single point]

**Q.** Which AC50 [1] does the source give for `Cn1cc(/C(Cc2ccccc2)=N\O)c2ccccc21` here?
**A.** 10 µM [rising, partial curve]

**Q.** For `CCn1c(SCC(=O)Nc2ccc(-c3nc4ccc(C)cc4s3)cc2)nnc1-c1ccccc1`, which AC50 [1] is on record?
**A.** 29.1 µM [rising, single point]

**Q.** For `CCC1CCCCN1CCCNC(=O)C1CCN(Cc2nc(-c3ccc(Cl)cc3)oc2C)CC1` (configuration not stated), which AC50 [1] is on record?
**A.** 8.91 µM [falling, partial curve, poor fit]

**Q.** With `COc1cccc(-c2ccc3ncnc(N(C)Cc4ccco4)c3c2)c1` as the compound, how does the AC50 [1] read?
**A.** 29.1 µM [falling, single point]

**Q.** For `COc1ccc(/C=N/NC(=O)c2cccc(NC(C)=O)c2)c(OC)c1`, which AC50 [1] is on record?
**A.** 15.8 µM [falling, partial curve, poor fit]

**Q.** Which AC50 [1] does the source give for `Cc1cc(C(=O)N/N=C/c2sccc2C)no1` here?
**A.** 20.6 µM [falling, partial curve]

**Q.** For `Oc1c(C(Nc2cccc(C(F)(F)F)c2)c2ccncc2)ccc2cccnc12` (configuration not stated), which AC50 [1] is on record?
**A.** 15.8 µM [falling, single point]

**Q.** Which AC50 [1] does the source give for `Cn1c(=O)c2c(ncn2CC(=O)Nc2ccccc2Sc2ccccc2)n(C)c1=O` here?
**A.** 6.31 µM [falling, single point]

**Q.** With `COc1ccc(OC)c(NC(=O)C(CCS(C)(=O)=O)NC(C)=O)c1` (configuration not stated) as the compound, how does the AC50 [1] read?
**A.** 29.1 µM [rising, single point]

**Q.** For `COc1ccc(C(=O)COC(=O)Cn2c(C)csc2=O)c(OC)c1`, which AC50 [1] is on record?
**A.** 18.4 µM [rising, partial curve]

**Q.** For `CC(C)OCCCNc1ncnc2c1[nH]c1ccccc12`, which AC50 [1] is on record?
**A.** 29.1 µM [falling, single point]

**Q.** With `Nc1nc(Nc2ccccc2)nc(NC2CCCCC2)c1[N+](=O)[O-]` as the compound, how does the AC50 [1] read?
**A.** 35.5 µM [falling, partial curve, poor fit]

**Q.** Which AC50 [1] does the source give for `CCCN1CCC(NC(=S)Nc2ccc(S(N)(=O)=O)cc2)CC1` here?
**A.** 35.5 µM [rising, partial curve, poor fit]

**Q.** For `Nc1nnc(SCC(=O)Nc2cc(S(=O)(=O)N3CCOCC3)ccc2N2CCCC2)s1`, which AC50 [1] is on record?
**A.** 25.9 µM [rising, single point]

**Q.** With `Cc1nnc(SCC(=O)Nc2nsc(-c3ccc(C(C)(C)C)cc3)n2)s1` as the compound, how does the AC50 [1] read?
**A.** 23.1 µM [rising, partial curve, poor fit]

**Q.** For `C=CC(=C)CC(NC)c1ccccc1` (configuration not stated), which AC50 [1] is on record?
**A.** 0.562 µM [rising, full curve, poor fit]

**Q.** Which AC50 [1] does the source give for `O=C1CC(c2ccc(O)c(O)c2)Oc2cc(O)cc(O)c21` (configuration not stated) here?
**A.** 10 µM [falling, partial curve, poor fit]

**Q.** With `Cc1ccc(C)c(Cc2c(C)nc3c(C(=O)NCc4ccc5c(c4)OCO5)cnn3c2C)c1` as the compound, how does the AC50 [1] read?
**A.** 0.206 µM [falling, full curve, poor fit]

**Q.** Which AC50 [1] does the source give for `O=c1c2ccccc2oc2nc(-c3ccco3)n(-c3ccccc3)c(=O)c12` here?
**A.** 0.82 µM [falling, full curve]

**Q.** For `Cc1ccc2nc(SCC(=O)Nc3cc([N+](=O)[O-])ccc3F)[nH]c2c1`, which AC50 [1] is on record?
**A.** 32.6 µM [rising, partial curve, poor fit]

**Q.** For `COc1ccc(/C=N/NC(=O)c2ccc3c(c2)OCCO3)c(OC)c1`, which AC50 [1] is on record?
**A.** 2.82 µM [falling, full curve]

**Q.** Which AC50 [1] does the source give for `CCCCCCCOc1ccc(OC(=O)c2ccncc2)cc1` here?
**A.** 18.4 µM [rising, single point]

**Q.** For `CCN(CC)C(=O)CSc1nnc(-c2ccccn2)n1-c1ccccc1OC`, which AC50 [1] is on record?
**A.** 15.8 µM [falling, single point]

**Q.** Which AC50 [1] does the source give for `CCc1cc2c(C)cc(C)cc2nc1SCC(=O)Nc1cc(C)on1` here?
**A.** 31.6 µM [rising, single point]

**Q.** With `COC(=O)Cn1c(O)c(N=NC(=O)CNC(=O)c2ccc3c(c2)OCCO3)c2ccccc21` as the compound, how does the AC50 [1] read?
**A.** 3.16 µM [rising, single point]

**Q.** Which AC50 [1] does the source give for `O=C(O)c1cc([N+](=O)[O-])ccc1NCc1ccccc1` here?
**A.** 5.62 µM [falling, partial curve, poor fit]

**Q.** For `COc1ccc(CCNC(=O)c2ccc(-c3cccc([N+](=O)[O-])c3)o2)cc1OC`, which AC50 [1] is on record?
**A.** 25.1 µM [falling, single point]

**Q.** For `Cc1ccc2c(c1)N(CC(=O)N1CCCCC1c1cccnc1)C(=O)CO2` (configuration not stated), which AC50 [1] is on record?
**A.** 20.6 µM [rising, partial curve, poor fit]

**Q.** With `O=C(N/N=C/c1cccc2ccccc12)c1cc(C2CC2)[nH]n1` as the compound, how does the AC50 [1] read?
**A.** 12.6 µM [falling, single point]

**Q.** For `COc1ccc(C(CCNCc2ccc(N(C)C)cc2)C(C)C)cc1` (configuration not stated), which AC50 [1] is on record?
**A.** 17.8 µM [falling, partial curve, poor fit]

**Q.** With `COCCNC(=O)c1ccccc1NC(=O)Nc1ccccc1` as the compound, how does the AC50 [1] read?
**A.** 8.91 µM [falling, partial curve]

**Q.** Which AC50 [1] does the source give for `COc1ccc(/C=N\NC(=O)c2ccccc2)cc1COc1ccccc1` here?
**A.** 7.94 µM [falling, partial curve, poor fit]

**Q.** With `O=[N+]([O-])c1ccccc1Oc1ccc(Cl)c2cccnc12` as the compound, how does the AC50 [1] read?
**A.** 11.2 µM [falling, partial curve]

**Q.** With `CC1CCN(C(=O)C2CC(c3ccc(F)cc3)=NO2)CC1` (configuration not stated) as the compound, how does the AC50 [1] read?
**A.** 1.78 µM [rising, partial curve, poor fit]

**Q.** For `Cc1ccc(NC(=O)c2cc(NC(=O)CCC(=O)O)ccc2N2CCCCC2)cc1`, which AC50 [1] is on record?
**A.** 3.16 µM [falling, partial curve]

**Q.** With `C/C(=N\Nc1ccc([N+](=O)[O-])cc1)c1ccc2c(c1)OCO2` as the compound, how does the AC50 [1] read?
**A.** 1.58 µM [rising, partial curve]

**Q.** What about the AC50 [2] of the same compound?
**A.** 11.2 µM [falling, single point]

**Q.** With `Cc1cc(C(=O)N/N=C/c2cccn2C)no1` as the compound, how does the AC50 [1] read?
**A.** 18.4 µM [falling, partial curve]

**Q.** With `COc1cc(/C=N/NC(=O)c2nc(-c3ccccc3)n(-c3ccccc3)n2)ccc1O` as the compound, how does the AC50 [1] read?
**A.** 0.92 µM [rising, full curve]
